Laboratory results: publication doi:10.1101/2022.08.31.505651
No constants are given. Whether binding was seen depends on the method and setting. In cells and extracts the contact can be indirect. Some binding calls cover weakened binding; strength is not graded here. Tags and fused reporters may be left off the sequences shown.

Biological target: T1, 3xFLAG-NEK1 D146A (kinase-dead) (human) (UniProt Q96PY6)
T1 sequence: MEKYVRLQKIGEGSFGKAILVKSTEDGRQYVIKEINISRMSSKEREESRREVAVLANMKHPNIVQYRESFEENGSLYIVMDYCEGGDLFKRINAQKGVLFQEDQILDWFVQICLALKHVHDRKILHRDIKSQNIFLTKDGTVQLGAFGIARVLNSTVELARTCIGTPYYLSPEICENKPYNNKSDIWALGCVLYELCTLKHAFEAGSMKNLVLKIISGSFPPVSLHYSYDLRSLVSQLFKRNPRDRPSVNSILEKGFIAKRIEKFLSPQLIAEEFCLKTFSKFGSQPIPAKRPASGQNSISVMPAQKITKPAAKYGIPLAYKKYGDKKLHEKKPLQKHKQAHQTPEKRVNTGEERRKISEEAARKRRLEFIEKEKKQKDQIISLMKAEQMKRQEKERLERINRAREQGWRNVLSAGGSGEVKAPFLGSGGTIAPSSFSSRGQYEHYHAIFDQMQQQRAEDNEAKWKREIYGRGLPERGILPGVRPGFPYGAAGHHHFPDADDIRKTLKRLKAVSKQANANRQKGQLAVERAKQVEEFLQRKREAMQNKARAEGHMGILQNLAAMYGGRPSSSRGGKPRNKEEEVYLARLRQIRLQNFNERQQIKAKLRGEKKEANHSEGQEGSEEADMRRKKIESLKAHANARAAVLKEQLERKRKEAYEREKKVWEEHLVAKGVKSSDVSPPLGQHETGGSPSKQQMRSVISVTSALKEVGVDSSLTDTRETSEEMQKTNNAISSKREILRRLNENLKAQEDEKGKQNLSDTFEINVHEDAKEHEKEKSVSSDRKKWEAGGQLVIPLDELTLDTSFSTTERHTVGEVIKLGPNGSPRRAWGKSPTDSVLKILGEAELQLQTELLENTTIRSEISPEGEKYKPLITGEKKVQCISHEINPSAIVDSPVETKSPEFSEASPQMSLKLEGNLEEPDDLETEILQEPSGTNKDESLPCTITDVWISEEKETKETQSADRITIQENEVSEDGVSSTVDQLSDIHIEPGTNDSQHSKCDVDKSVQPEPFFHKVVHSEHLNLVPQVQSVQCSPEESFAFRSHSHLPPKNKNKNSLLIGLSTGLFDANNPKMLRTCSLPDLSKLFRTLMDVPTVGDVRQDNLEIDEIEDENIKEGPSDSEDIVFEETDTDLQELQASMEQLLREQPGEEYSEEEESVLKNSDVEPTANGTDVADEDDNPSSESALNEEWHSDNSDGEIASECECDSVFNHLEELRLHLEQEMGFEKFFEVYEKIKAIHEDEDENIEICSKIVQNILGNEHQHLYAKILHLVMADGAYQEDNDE
Assay: co-IP

- binding: binds
B1: 3xHA-C21ORF2 wild type (protein, UniProt O43822-1 1-256)
chain: MKLTRKMVLTRAKASELHSVRKLNCWGSRLTDISICQEMPSLEVITLSVNSISTLEPVSRCQRLSELYLRRNRIPSLAELFYLKGLPRLRVLWLAENPCCGTSPHRYRMTVLRTLPRLQKLDNQAVTEEELSRALSEGEEITAAPEREGTGHGGPKLCCTLSSLSSAAETGRDPLDSEEEATSGAQDERGLKPPSRGQFPSLSARDASSSHRGRNVLTAILLLLRELDAEGLEAVQQTVGSRLQALRGEEVQEHAE
